Values quoted from earlier work, collected in patent US7951598B2, “Differential hemolysis of a whole blood sample” (Roche Diagnostics Operations, Inc., priority 2006, dated 2011).
At least one structure is not confirmed: it was looked up by name or label, or the drawing left a doubt.

Settings: in vitro; cited from earlier work

CO[C@H]1C[C@@H]2CC[C@@H](C)[C@@](O)(O2)C(=O)C(=O)N2CCCC[C@H]2C(=O)O[C@H]([C@H](C)C[C@@H]2CC[C@@H](O)[C@H](OC)C2)CC(=O)[C@H](C)/C=C(\C)[C@@H](O)[C@@H](OC)C(=O)[C@H](C)C[C@H](C)/C=C/C=C/C=C/1C [Sirolimus, sirolimus]
potency relative to cyclosporin: up to 100 times
